Test results published in the supplement of paper PMC10849652.
The other results are listed elsewhere or left out.

Chains of the proteins cited; added tags and fusions are not shown. Lines headed by an entry give the natural chain unless they say otherwise; changes in a name come on top.
UniProt P16615: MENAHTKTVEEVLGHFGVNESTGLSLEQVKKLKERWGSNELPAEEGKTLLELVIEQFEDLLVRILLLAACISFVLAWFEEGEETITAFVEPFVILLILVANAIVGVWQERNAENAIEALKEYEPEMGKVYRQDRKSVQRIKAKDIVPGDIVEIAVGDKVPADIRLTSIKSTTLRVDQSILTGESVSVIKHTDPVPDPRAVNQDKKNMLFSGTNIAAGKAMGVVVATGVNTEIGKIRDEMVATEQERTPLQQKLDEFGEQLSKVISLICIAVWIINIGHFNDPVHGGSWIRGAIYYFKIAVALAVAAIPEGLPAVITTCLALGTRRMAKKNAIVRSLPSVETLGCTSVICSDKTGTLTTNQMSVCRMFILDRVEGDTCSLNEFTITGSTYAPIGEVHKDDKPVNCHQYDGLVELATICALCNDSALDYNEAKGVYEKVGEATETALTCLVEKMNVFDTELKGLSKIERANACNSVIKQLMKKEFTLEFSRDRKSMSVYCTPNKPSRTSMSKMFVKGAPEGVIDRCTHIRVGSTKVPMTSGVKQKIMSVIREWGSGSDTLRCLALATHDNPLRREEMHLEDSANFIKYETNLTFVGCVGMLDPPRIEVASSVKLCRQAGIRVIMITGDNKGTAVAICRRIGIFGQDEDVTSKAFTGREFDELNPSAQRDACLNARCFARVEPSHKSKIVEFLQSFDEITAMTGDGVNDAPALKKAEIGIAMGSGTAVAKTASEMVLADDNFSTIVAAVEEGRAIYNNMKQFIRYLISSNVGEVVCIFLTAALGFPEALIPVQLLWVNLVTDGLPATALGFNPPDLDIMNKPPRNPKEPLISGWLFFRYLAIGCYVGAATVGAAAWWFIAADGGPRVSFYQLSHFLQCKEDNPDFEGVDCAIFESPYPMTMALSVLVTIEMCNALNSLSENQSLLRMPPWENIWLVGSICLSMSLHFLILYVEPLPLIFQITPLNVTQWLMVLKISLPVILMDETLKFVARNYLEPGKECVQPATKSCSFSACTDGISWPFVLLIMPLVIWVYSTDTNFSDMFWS
UniProt P18859: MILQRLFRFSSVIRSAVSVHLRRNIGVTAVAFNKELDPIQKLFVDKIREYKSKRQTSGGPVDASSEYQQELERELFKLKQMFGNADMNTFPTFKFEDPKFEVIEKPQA
UniProt Q7L266: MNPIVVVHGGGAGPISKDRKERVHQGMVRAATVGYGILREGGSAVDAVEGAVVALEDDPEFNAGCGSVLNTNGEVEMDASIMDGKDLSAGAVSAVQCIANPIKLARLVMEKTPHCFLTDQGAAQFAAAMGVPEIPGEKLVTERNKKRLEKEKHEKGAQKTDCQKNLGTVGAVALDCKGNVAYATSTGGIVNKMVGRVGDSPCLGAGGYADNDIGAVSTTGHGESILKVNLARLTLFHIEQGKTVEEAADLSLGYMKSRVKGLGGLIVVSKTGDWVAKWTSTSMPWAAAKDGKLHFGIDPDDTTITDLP
UniProt Q9H993: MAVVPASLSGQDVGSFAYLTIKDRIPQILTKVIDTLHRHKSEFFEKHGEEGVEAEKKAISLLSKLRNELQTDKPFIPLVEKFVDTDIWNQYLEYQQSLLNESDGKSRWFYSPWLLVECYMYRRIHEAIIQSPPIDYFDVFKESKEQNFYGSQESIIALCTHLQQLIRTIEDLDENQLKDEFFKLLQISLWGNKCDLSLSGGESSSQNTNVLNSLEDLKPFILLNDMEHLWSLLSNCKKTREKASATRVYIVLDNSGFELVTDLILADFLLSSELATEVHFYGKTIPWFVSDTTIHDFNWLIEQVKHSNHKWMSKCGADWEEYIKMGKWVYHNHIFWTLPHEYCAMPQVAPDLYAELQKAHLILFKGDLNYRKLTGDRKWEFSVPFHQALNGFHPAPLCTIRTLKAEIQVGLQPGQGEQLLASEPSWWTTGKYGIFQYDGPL
UniProt Q9NVJ2: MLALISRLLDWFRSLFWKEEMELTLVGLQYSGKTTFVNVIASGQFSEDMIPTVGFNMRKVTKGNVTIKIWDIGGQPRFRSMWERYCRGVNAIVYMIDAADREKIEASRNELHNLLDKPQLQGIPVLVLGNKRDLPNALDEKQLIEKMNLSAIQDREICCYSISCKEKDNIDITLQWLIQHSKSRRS
UniProt Q04656: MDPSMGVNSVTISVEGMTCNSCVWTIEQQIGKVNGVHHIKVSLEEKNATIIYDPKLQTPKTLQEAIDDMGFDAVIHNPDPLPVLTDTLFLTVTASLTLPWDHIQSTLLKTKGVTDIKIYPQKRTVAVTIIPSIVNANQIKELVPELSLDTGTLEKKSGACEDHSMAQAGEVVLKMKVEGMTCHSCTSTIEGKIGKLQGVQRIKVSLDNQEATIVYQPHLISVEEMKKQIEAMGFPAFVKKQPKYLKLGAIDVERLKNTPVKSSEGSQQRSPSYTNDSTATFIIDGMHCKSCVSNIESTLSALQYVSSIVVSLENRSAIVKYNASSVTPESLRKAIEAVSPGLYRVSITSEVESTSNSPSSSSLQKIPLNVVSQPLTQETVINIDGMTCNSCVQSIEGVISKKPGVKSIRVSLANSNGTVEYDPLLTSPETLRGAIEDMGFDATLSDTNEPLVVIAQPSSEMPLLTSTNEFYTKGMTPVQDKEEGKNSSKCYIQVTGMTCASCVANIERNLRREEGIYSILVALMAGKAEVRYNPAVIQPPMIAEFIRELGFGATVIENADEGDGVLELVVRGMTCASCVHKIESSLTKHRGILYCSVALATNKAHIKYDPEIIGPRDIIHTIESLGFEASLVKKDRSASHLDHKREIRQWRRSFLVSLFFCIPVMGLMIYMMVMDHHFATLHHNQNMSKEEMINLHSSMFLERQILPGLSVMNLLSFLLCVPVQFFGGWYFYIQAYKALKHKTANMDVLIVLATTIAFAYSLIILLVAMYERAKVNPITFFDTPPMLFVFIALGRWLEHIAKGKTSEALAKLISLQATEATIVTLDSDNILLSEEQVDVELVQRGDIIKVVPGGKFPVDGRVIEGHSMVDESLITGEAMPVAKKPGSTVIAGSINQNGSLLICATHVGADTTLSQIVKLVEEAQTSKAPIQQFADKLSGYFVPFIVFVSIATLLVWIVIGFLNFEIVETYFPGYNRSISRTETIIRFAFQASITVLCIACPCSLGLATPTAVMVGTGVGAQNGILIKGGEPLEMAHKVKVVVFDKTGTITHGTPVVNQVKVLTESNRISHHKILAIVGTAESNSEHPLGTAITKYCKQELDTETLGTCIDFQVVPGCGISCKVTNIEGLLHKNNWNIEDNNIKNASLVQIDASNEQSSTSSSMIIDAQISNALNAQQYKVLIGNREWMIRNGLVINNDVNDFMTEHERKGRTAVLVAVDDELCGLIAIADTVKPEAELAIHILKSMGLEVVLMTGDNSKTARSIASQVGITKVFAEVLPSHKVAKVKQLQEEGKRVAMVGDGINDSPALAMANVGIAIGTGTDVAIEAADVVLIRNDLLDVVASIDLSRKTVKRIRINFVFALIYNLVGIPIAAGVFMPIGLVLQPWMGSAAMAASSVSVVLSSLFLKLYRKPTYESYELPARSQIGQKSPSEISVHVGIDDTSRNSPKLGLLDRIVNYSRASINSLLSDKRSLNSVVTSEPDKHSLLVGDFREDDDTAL
UniProt Q13510, whole entry, looked up: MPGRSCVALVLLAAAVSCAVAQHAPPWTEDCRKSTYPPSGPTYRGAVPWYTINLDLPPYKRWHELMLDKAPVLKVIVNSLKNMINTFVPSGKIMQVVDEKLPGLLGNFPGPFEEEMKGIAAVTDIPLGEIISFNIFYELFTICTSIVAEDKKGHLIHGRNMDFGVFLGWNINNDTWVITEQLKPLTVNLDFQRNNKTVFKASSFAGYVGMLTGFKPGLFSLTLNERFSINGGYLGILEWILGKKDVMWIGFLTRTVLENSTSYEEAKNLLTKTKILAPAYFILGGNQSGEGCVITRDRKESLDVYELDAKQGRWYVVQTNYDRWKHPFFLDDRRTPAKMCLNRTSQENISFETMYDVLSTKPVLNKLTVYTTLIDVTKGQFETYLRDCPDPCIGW
UniProt P56378: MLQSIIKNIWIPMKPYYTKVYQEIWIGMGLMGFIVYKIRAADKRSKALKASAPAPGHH
UniProt O95671: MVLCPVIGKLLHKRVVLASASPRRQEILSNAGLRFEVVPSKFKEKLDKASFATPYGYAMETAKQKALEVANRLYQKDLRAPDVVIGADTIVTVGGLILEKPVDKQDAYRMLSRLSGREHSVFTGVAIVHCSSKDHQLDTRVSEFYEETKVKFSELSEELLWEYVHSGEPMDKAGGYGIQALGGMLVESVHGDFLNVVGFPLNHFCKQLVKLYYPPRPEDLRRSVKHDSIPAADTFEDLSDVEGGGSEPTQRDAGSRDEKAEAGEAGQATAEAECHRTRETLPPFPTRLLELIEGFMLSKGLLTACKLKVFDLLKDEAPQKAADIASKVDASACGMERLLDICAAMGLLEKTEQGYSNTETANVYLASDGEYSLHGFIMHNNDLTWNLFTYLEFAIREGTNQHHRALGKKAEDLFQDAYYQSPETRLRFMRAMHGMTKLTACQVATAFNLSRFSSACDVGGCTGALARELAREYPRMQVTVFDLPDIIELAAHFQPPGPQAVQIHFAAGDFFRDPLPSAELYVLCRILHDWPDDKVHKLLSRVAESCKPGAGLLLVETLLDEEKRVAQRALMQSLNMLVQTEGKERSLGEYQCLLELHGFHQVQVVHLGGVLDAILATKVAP
UniProt P32121, whole entry, looked up: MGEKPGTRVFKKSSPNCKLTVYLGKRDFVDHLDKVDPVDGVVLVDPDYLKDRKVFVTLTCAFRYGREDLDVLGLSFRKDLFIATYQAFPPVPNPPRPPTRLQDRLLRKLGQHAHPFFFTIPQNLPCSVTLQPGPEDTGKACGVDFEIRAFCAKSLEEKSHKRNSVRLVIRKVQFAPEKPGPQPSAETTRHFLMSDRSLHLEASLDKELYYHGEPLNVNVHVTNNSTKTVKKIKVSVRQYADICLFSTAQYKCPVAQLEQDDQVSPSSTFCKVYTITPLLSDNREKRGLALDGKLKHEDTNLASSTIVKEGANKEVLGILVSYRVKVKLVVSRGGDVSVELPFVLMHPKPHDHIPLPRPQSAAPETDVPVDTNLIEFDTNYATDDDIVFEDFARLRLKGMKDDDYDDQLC
UniProt Q8NHH9: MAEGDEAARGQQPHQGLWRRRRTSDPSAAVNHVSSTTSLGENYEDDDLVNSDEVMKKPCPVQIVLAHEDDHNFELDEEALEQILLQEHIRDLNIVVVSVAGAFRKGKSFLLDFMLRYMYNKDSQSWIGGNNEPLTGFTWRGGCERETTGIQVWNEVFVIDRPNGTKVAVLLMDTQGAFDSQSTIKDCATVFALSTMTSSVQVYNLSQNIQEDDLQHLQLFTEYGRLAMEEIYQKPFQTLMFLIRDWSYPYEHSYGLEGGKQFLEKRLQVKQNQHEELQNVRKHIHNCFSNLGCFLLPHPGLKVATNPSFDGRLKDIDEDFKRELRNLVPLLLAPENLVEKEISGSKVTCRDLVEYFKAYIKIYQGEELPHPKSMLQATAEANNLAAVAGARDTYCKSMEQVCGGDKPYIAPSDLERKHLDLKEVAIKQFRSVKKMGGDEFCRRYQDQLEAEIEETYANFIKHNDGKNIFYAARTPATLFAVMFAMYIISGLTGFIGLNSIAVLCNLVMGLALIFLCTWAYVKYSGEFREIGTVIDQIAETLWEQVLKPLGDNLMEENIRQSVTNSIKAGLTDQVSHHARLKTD
UniProt P98194: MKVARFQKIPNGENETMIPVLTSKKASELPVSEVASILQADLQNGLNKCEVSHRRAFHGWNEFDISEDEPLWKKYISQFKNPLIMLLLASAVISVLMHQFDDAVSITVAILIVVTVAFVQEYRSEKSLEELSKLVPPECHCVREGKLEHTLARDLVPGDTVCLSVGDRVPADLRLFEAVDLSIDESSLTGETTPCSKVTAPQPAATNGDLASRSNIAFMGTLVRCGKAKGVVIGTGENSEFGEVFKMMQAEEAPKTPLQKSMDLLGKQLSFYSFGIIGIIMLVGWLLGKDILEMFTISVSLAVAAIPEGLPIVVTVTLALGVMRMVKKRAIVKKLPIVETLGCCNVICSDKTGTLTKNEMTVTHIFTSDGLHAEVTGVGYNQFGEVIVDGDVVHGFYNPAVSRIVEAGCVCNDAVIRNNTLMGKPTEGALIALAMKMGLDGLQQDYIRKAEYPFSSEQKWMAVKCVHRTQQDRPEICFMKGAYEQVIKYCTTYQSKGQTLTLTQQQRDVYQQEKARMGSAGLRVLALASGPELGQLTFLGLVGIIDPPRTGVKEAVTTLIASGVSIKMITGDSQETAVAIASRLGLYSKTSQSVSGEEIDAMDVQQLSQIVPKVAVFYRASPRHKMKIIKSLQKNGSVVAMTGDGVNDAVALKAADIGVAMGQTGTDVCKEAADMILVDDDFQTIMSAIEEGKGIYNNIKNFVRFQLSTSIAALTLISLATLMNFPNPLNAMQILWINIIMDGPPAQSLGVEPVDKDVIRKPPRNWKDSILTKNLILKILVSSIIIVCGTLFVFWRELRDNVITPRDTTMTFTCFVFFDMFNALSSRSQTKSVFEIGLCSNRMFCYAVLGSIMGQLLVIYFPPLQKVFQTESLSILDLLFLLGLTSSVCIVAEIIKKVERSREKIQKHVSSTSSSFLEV

Columns and labels:
Test in all cases: log2 fold change, soluble protein after heating vs DMSO (PISA); higher = thermal stabilisation; K562 cells, 10 uM, 30 min; active = over 0.2 and 3.5 SD of the protein, either way, in both replicates (recomputed)
[1] = compound: COC1=CC=C(C=C1)CN2C=CC3=C2C=C(C=C3)C(=O)NO
In short: (§1)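 K562 cells at 2×10^6 cells/mL were treated with 10 μM compound for 30 min. Aliquots were heated for 3 min across 48°C-58°C, pooled, and extracted in PBS with 0.5% NP-40 at 4°C; soluble protein was the supernatant after 21,000xg for 90 min. Soluble protein was quantified by TMTpro 16plex LC-MS/MS with channel sums equalised, and reported as log2 fold change in thermal stability against DMSO controls, with values from duplicates.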

filanesib = compound: CON(C)C(=O)N1N=C(c2cc(F)ccc2F)S[C@@]1(CCCN)c1ccccc1 [filanesib]
In short: as §1

zotarolimus = compound: CO[C@H]1C[C@@H]2CC[C@@H](C)[C@@](O)(O2)C(=O)C(=O)N2CCCC[C@H]2C(=O)O[C@H]([C@H](C)C[C@@H]2CC[C@H](n3cnnn3)[C@H](OC)C2)CC(=O)[C@H](C)/C=C(\C)[C@@H](O)[C@@H](OC)C(=O)[C@H](C)C[C@H](C)/C=C/C=C/C=C/1C [zotarolimus]
In short: as §1

idasanutlin = compound: COc1cc(C(=O)O)ccc1NC(=O)[C@@H]1N[C@@H](CC(C)(C)C)[C@](C#N)(c2ccc(Cl)cc2F)[C@H]1c1cccc(Cl)c1F [idasanutlin]
In short: as §1

alisertib = compound: COc1cc(Nc2ncc3c(n2)-c2ccc(Cl)cc2C(c2c(F)cccc2OC)=NC3)ccc1C(=O)O [alisertib]
In short: as §1

[2] = compound: COc1cc2nc(-c3cc(F)ccc3O)nc(N[C@@H]3CNC[C@H]3C(C)(C)O)c2cc1OC
In short: as §1

gefitinib = compound: COc1cc2ncnc(Nc3ccc(F)c(Cl)c3)c2cc1OCCCN1CCOCC1 [gefitinib]
In short: as §1

[3] = compound: COc1cccc2cc(-c3nc([C@H]4CC[C@H](C(=O)O)CC4)n4ncnc(N)c34)[nH]c12
In short: as §1

lapatinib = compound: CS(=O)(=O)CCNCc1ccc(-c2ccc3ncnc(Nc4ccc(OCc5cccc(F)c5)c(Cl)c4)c3c2)o1 [lapatinib]
In short: as §1

pictilisib = compound: CS(=O)(=O)N1CCN(Cc2cc3nc(-c4cccc5[nH]ncc45)nc(N4CCOCC4)c3s2)CC1 [pictilisib]
In short: as §1

Measured: log2 fold change

ATP2A2 (UniProt P16615)
inactive: [1] -0.021 | filanesib -0.072 | zotarolimus 0.027 | idasanutlin -0.078 | alisertib -0.017 | [2] 0.021 | gefitinib 0.008 | [3] 0.01 | lapatinib -0.001 | pictilisib -0.011

ATP5PF isoform 2 (UniProt P18859)
inactive: [1] 0 | filanesib 0.122 | zotarolimus 0.04 | idasanutlin 0.029 | alisertib -0.055 | [2] -0.183 | gefitinib 0.032 | [3] 0.036 | lapatinib -0.058 | pictilisib 0.106

ATG2B (UniProt Q96BY7)
inactive: [1] -0.065 | filanesib -0.002 | zotarolimus -0.027 | idasanutlin 0.045 | alisertib -0.024 | [2] -0.043 | gefitinib 0.041 | [3] 0.067 | lapatinib 0.132 | pictilisib 0.04

ASRGL1 (UniProt Q7L266)
inactive: [1] 0.011 | filanesib -0.003 | zotarolimus 0.034 | idasanutlin -0.012 | alisertib 0.048 | [2] 0.033 | gefitinib 0.007 | [3] 0.178 | lapatinib -0.008 | pictilisib 0.013

ARMT1 (UniProt Q9H993)
inactive: [1] 0.017 | filanesib -0.033 | zotarolimus -0.013 | idasanutlin -0.021 | alisertib -0.023 | [2] 0.039 | gefitinib -0.123 | [3] -0.173 | lapatinib -0.034 | pictilisib -0.024

ARL8B (UniProt Q9NVJ2)
inactive: [1] -0.04 | filanesib -0.138 | zotarolimus -0.025 | idasanutlin -0.003 | alisertib 0.004 | [2] -0.049 | gefitinib -0.001 | [3] 0.026 | lapatinib -0.022 | pictilisib -0.023

ASH2L (UniProt Q9UBL3)
inactive: [1] 0.019 | filanesib 0.044 | zotarolimus 0.096 | idasanutlin 0.021 | alisertib -0.034 | [2] 0.035 | gefitinib 0.004 | [3] -0.014 | lapatinib -0.011 | pictilisib 0.039

ATP5MC2 isoform 2 (UniProt Q06055)
inactive: [1] -0.103 | filanesib -0.025 | zotarolimus 0.005 | idasanutlin -0.052 | alisertib 0.099 | [2] -0.099 | gefitinib 0.024 | [3] -0.066 | lapatinib -0.003 | pictilisib 0.084

ATN1 (UniProt P54259)
inactive: [1] 0.101 | filanesib 0.079 | zotarolimus -0.001 | idasanutlin -0.013 | alisertib -0.019 | [2] -0.038 | gefitinib -0.051 | [3] 0.018 | lapatinib -0.031 | pictilisib 0.056

ARMC6 (UniProt Q6NXE6)
inactive: [1] -0.017 | filanesib 0.222 | zotarolimus 0.12 | idasanutlin 0.19 | alisertib -0.073 | [2] -0.088 | gefitinib 0.014 | [3] -0.164 | lapatinib 0.083 | pictilisib -0.02

ASPH (UniProt Q12797)
inactive: [1] -0.043 | filanesib 0.168 | zotarolimus 0.007 | idasanutlin 0.035 | alisertib -0.125 | [2] 0 | gefitinib -0.016 | [3] -0.097 | lapatinib 0.094 | pictilisib -0.077

ATP7A isoform 3 (UniProt Q04656)
inactive: [1] -0.066 | filanesib 0.06 | zotarolimus -0.001 | idasanutlin -0.033 | alisertib -0.021 | [2] 0.121 | gefitinib 0.09 | [3] -0.007 | lapatinib 0 | pictilisib 0.073

ASAH1 isoform 2 (UniProt Q13510)
inactive: [1] 0.029 | filanesib -0.078 | zotarolimus -0.038 | idasanutlin -0.002 | alisertib -0.009 | [2] -0.003 | gefitinib -0.115 | [3] 0.071 | lapatinib -0.069 | pictilisib 0.034

ATG7 (UniProt O95352)
inactive: [1] -0.039 | filanesib -0.006 | zotarolimus 0.035 | idasanutlin -0.06 | alisertib 0.003 | [2] -0.02 | gefitinib -0.007 | [3] 0.017 | lapatinib 0.015 | pictilisib -0.079

ATG5 (UniProt Q9H1Y0)
inactive: [1] 0.075 | filanesib -0.072 | zotarolimus 0.045 | idasanutlin -0.028 | alisertib -0.072 | [2] -0.009 | gefitinib -0.005 | [3] 0.002 | lapatinib 0.028 | pictilisib 0

ATP6AP1 (UniProt Q15904)
inactive: [1] -0.099 | filanesib -0.064 | zotarolimus 0.025 | idasanutlin 0.009 | alisertib 0.166 | [2] -0.068 | gefitinib -0.009 | [3] -0.057 | lapatinib 0.019 | pictilisib -0.017

ATP5MPL (UniProt P56378)
inactive: [1] 0.017 | filanesib 0.105 | zotarolimus -0.043 | idasanutlin -0.003 | alisertib -0.052 | [2] 0.09 | gefitinib 0.052 | [3] 0.047 | lapatinib 0.097 | pictilisib 0.124

ATP6V1H (UniProt Q9UI12)
inactive: [1] 0.035 | filanesib -0.106 | zotarolimus 0.055 | idasanutlin -0.067 | alisertib -0.1 | [2] -0.064 | gefitinib -0.121 | [3] -0.073 | lapatinib -0.009 | pictilisib -0.063

ARPC2 (UniProt O15144)
inactive: [1] -0.024 | filanesib 0.004 | zotarolimus 0.004 | idasanutlin -0.039 | alisertib -0.01 | [2] 0.048 | gefitinib 0.011 | [3] 0.094 | lapatinib -0.01 | pictilisib 0.023

Nine consecutive entries out of the list so far, for reference:
ARMC6 (UniProt Q6NXE6)
inactive: [1] -0.017 | filanesib 0.222 | zotarolimus 0.12 | idasanutlin 0.19 | alisertib -0.073 | [2] -0.088 | gefitinib 0.014 | [3] -0.164 | lapatinib 0.083 | pictilisib -0.02

ASPH (UniProt Q12797)
inactive: [1] -0.043 | filanesib 0.168 | zotarolimus 0.007 | idasanutlin 0.035 | alisertib -0.125 | [2] 0 | gefitinib -0.016 | [3] -0.097 | lapatinib 0.094 | pictilisib -0.077

ATP7A isoform 3 (UniProt Q04656)
inactive: [1] -0.066 | filanesib 0.06 | zotarolimus -0.001 | idasanutlin -0.033 | alisertib -0.021 | [2] 0.121 | gefitinib 0.09 | [3] -0.007 | lapatinib 0 | pictilisib 0.073

ASAH1 isoform 2 (UniProt Q13510)
inactive: [1] 0.029 | filanesib -0.078 | zotarolimus -0.038 | idasanutlin -0.002 | alisertib -0.009 | [2] -0.003 | gefitinib -0.115 | [3] 0.071 | lapatinib -0.069 | pictilisib 0.034

ATG7 (UniProt O95352)
inactive: [1] -0.039 | filanesib -0.006 | zotarolimus 0.035 | idasanutlin -0.06 | alisertib 0.003 | [2] -0.02 | gefitinib -0.007 | [3] 0.017 | lapatinib 0.015 | pictilisib -0.079

ATG5 (UniProt Q9H1Y0)
inactive: [1] 0.075 | filanesib -0.072 | zotarolimus 0.045 | idasanutlin -0.028 | alisertib -0.072 | [2] -0.009 | gefitinib -0.005 | [3] 0.002 | lapatinib 0.028 | pictilisib 0

ATP6AP1 (UniProt Q15904)
inactive: [1] -0.099 | filanesib -0.064 | zotarolimus 0.025 | idasanutlin 0.009 | alisertib 0.166 | [2] -0.068 | gefitinib -0.009 | [3] -0.057 | lapatinib 0.019 | pictilisib -0.017

ATP5MPL (UniProt P56378)
inactive: [1] 0.017 | filanesib 0.105 | zotarolimus -0.043 | idasanutlin -0.003 | alisertib -0.052 | [2] 0.09 | gefitinib 0.052 | [3] 0.047 | lapatinib 0.097 | pictilisib 0.124

ATP6V1H (UniProt Q9UI12)
inactive: [1] 0.035 | filanesib -0.106 | zotarolimus 0.055 | idasanutlin -0.067 | alisertib -0.1 | [2] -0.064 | gefitinib -0.121 | [3] -0.073 | lapatinib -0.009 | pictilisib -0.063

More entries follow:

ATL3 (UniProt Q6DD88)
inactive: [1] -0.022 | filanesib -0.066 | zotarolimus 0.044 | idasanutlin -0.119 | alisertib -0.014 | [2] 0.018 | gefitinib -0.026 | [3] 0.05 | lapatinib -0.009 | pictilisib -0.016

ARIH2 (UniProt O95376)
inactive: [1] -0.01 | filanesib -0.082 | zotarolimus 0.011 | idasanutlin 0.041 | alisertib -0.055 | [2] -0.014 | gefitinib 0.037 | [3] -0.007 | lapatinib 0.002 | pictilisib -0.029

ATP12A isoform 2 (UniProt P54707)
inactive: [1] -0.034 | filanesib -0.015 | zotarolimus -0.015 | idasanutlin 0.016 | alisertib -0.008 | [2] 0.071 | gefitinib 0.032 | [3] 0.043 | lapatinib -0.074 | pictilisib 0.1

ATG2A isoform 3 (UniProt Q2TAZ0)
inactive: [1] -0.024 | filanesib 0.001 | zotarolimus -0.013 | idasanutlin -0.037 | alisertib -0.055 | [2] 0.034 | gefitinib -0.011 | [3] 0.042 | lapatinib 0.011 | pictilisib 0.092

ASMTL (UniProt O95671)
inactive: [1] -0.092 | filanesib -0.014 | zotarolimus 0.008 | idasanutlin -0.093 | alisertib -0.093 | [2] 0.033 | gefitinib 0.056 | [3] 0.113 | lapatinib 0.007 | pictilisib 0.048

ATG4B isoform 2 (UniProt Q9Y4P1)
inactive: [1] -0.003 | filanesib -0.142 | zotarolimus 0.048 | idasanutlin -0.045 | alisertib -0.009 | [2] -0.058 | gefitinib 0.005 | [3] -0.082 | lapatinib -0.157 | pictilisib -0.311

ARRB2 isoform 4 (UniProt P32121)
inactive: [1] -0.103 | filanesib -0.048 | zotarolimus 0.009 | idasanutlin -0.012 | alisertib -0.073 | [2] 0.085 | gefitinib 0.009 | [3] 0.066 | lapatinib -0.028 | pictilisib 0.068

ASDURF (UniProt L0R819)
inactive: [1] 0.048 | filanesib 0.036 | zotarolimus -0.019 | idasanutlin 0.022 | alisertib -0.031 | [2] -0.052 | gefitinib -0.033 | [3] 0.069 | lapatinib -0.018 | pictilisib 0.024

ATL2 (UniProt Q8NHH9)
inactive: [1] -0.006 | filanesib -0.03 | zotarolimus 0.026 | idasanutlin -0.052 | alisertib 0.008 | [2] 0.148 | gefitinib 0.016 | [3] 0.034 | lapatinib -0.039 | pictilisib 0.003

ATP2C1 isoform 3 (UniProt P98194)
inactive: zotarolimus -0.008 | idasanutlin -0.264 | alisertib -0.053 | [2] -0.022 | [3] 0.056 | lapatinib 0.081

ASXL2 (UniProt Q76L83)
inactive: idasanutlin -0.043

ATP5F1B (UniProt H0YI37)
inactive: filanesib 0.121 | [2] 0.237 | lapatinib -0.379 | pictilisib 0.177
